{"source": "PubChem BioAssay AID1508597, Cure First | 2020", "aim": "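Knock-downs altering ovarian cancer cell survival with or without PARP inhibitor rucaparib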 (primary screen)", "cells": "human ovarian carcinoma lines grown from tumours: OCI-P5x (papillary serous) and OCI-C5x (clear cell)", "reagent": "siRNA pool against human genes, 1.25 pmol siRNA per well", "time to read-out": "72 h or 96 h, depending on the cell culture", "challenge": "rucaparib 20 µM (about IC30) or vehicle, present until read-out", "rucaparib or vehicle": "Rucaparib", "cell line": "OCI-C5x (clear cell)", "read-out": "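Luminescent ATP-based viability assay read 72 or 96 h after transfection, depending on culture, given as normalised percent viability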", "scale": "viability, normalised: higher = more viable cells remaining", "call rule": "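a well counts as a hit if its normalised viability is under 80 percent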", "meaning of the calls": "active = viability under 80%; inactive = viability 80% or more", "note": "Shown is an unselected part of the about 2,100 reagents, under one of the conditions tested. 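Calls flag viability under 80% in either arm, not effects specific to rucaparib; the reference for percent is not stated.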 Unmarked entries are inactive. A reagent listed more than once was tested more than once; the source does not tell the runs apart. Not stated in the record: the 100% reference."}
{"gene": "DDB1 (damage specific DNA binding protein 1)", "technical replicate": "1", "viability, normalised (%)": "40.3 (active)"}
{"gene": "DDB1 (damage specific DNA binding protein 1)", "technical replicate": "1", "viability, normalised (%)": "36.1 (active)"}
{"gene": "DDB1 (damage specific DNA binding protein 1)", "technical replicate": "2", "viability, normalised (%)": "32.4 (active)"}
{"gene": "DDB1 (damage specific DNA binding protein 1)", "technical replicate": "2", "viability, normalised (%)": "63.3 (active)"}
{"gene": "DDB1 (damage specific DNA binding protein 1)", "technical replicate": "3", "viability, normalised (%)": "35.7 (active)"}
{"gene": "DDB1 (damage specific DNA binding protein 1)", "technical replicate": "3", "viability, normalised (%)": "26.6 (active)"}
{"gene": "PRMT1 (protein arginine methyltransferase 1)", "technical replicate": "1", "viability, normalised (%)": "64.2 (active)"}
{"gene": "PRMT1 (protein arginine methyltransferase 1)", "technical replicate": "2", "viability, normalised (%)": "50.9 (active)"}
{"gene": "PRMT1 (protein arginine methyltransferase 1)", "technical replicate": "3", "viability, normalised (%)": "40.7 (active)"}
{"gene": "MAP2K2 (mitogen-activated protein kinase kinase 2)", "technical replicate": "1", "viability, normalised (%)": "46.7 (active)"}
{"gene": "MAP2K2 (mitogen-activated protein kinase kinase 2)", "technical replicate": "2", "viability, normalised (%)": "51.4 (active)"}
{"gene": "MAP2K2 (mitogen-activated protein kinase kinase 2)", "technical replicate": "3", "viability, normalised (%)": "59.7 (active)"}
{"gene": "APOA2 (apolipoprotein A2)", "technical replicate": "1", "viability, normalised (%)": "34.9 (active)"}
{"gene": "APOA2 (apolipoprotein A2)", "technical replicate": "2", "viability, normalised (%)": "34.1 (active)"}
{"gene": "APOA2 (apolipoprotein A2)", "technical replicate": "3", "viability, normalised (%)": "39.8 (active)"}
{"gene": "CLDN20 (claudin 20)", "technical replicate": "1", "viability, normalised (%)": "64.4 (active)"}
{"gene": "CLDN20 (claudin 20)", "technical replicate": "2", "viability, normalised (%)": "62.7 (active)"}
{"gene": "CLDN20 (claudin 20)", "technical replicate": "3", "viability, normalised (%)": "51.5 (active)"}
{"gene": "KAT2B (lysine acetyltransferase 2B)", "technical replicate": "1", "viability, normalised (%)": "58.3 (active)"}
{"gene": "KAT2B (lysine acetyltransferase 2B)", "technical replicate": "2", "viability, normalised (%)": "41.5 (active)"}
{"gene": "KAT2B (lysine acetyltransferase 2B)", "technical replicate": "3", "viability, normalised (%)": "46.3 (active)"}
{"gene": "TRIB2 (tribbles pseudokinase 2)", "technical replicate": "1", "viability, normalised (%)": "58.9 (active)"}
{"gene": "TRIB2 (tribbles pseudokinase 2)", "technical replicate": "2", "viability, normalised (%)": "61.5 (active)"}
{"gene": "TRIB2 (tribbles pseudokinase 2)", "technical replicate": "3", "viability, normalised (%)": "44.8 (active)"}
{"gene": "IP6K2 (inositol hexakisphosphate kinase 2)", "technical replicate": "1", "viability, normalised (%)": "47.9 (active)"}
{"gene": "IP6K2 (inositol hexakisphosphate kinase 2)", "technical replicate": "2", "viability, normalised (%)": "49.7 (active)"}
{"gene": "IP6K2 (inositol hexakisphosphate kinase 2)", "technical replicate": "3", "viability, normalised (%)": "62.2 (active)"}
{"gene": "LIG4 (DNA ligase 4)", "technical replicate": "1", "viability, normalised (%)": "50.6 (active)"}
{"gene": "LIG4 (DNA ligase 4)", "technical replicate": "1", "viability, normalised (%)": "53.3 (active)"}
{"gene": "LIG4 (DNA ligase 4)", "technical replicate": "2", "viability, normalised (%)": "37.6 (active)"}
{"gene": "LIG4 (DNA ligase 4)", "technical replicate": "2", "viability, normalised (%)": "60.3 (active)"}
{"gene": "LIG4 (DNA ligase 4)", "technical replicate": "3", "viability, normalised (%)": "50.4 (active)"}
{"gene": "LIG4 (DNA ligase 4)", "technical replicate": "3", "viability, normalised (%)": "49.3 (active)"}

A few values from above:
Value for IP6K2 (inositol hexakisphosphate kinase 2), technical replicate 2 in “viability, normalised (%)”: 49.7 (active)
For “viability, normalised (%)”, IP6K2 (inositol hexakisphosphate kinase 2), technical replicate 1 has 47.9 (active)
Result for APOA2 (apolipoprotein A2), technical replicate 2 under “viability, normalised (%)”: 34.1 (active)
PRMT1 (protein arginine methyltransferase 1), technical replicate 1, viability, normalised (%) = 64.2 (active)
Under “viability, normalised (%)”, MAP2K2 (mitogen-activated protein kinase kinase 2), technical replicate 2 reads 51.4 (active)
APOA2 (apolipoprotein A2), technical replicate 1, viability, normalised (%) = 34.9 (active)
